For four molecules, binding results are on record in paper PMC7353009, “Identification of Substrates of Cytoplasmic Peptidyl-Prolyl Cis/Trans Isomerases and Their Collective Essentiality in Escherichia Coli” (International Journal of Molecular Sciences, 2020).

Holding throughout (assay): affinity purification with mass spectrometry; His6-tagged PPI induced with 0.1 mM IPTG in an E. coli T7 express derivative lacking all six PPIs (SR21984); soluble lysate on Ni-NTA beads, 50 mM NaH2PO4, 300 mM NaCl, eluted with a linear imidazole gradient (50-500 mM); co-eluting proteins resolved by SDS-PAGE (for FkpB also 2D gels) and identified by MALDI-TOF
The target in experiment [1] is Hexa-His-tagged PpiC M57A (E. coli).
The target of experiment [2] is T1, Hexa-His-tagged PpiC (wild type) (E. coli, UniProt P0A9L5 1-93).
T1 construct: PpiC, parvulin peptidyl-prolyl cis/trans isomerase, E. coli; coding region of the ppiC gene in pET24b; The tag is called cleavable; also called wt PpiC; wild-type PpiC; source: E. coli T7 express derivative lacking all six PPIs (SR21984), IPTG-induced; in lysate on Ni-NTA for co-elution; purified (Ni-NTA) for ITC; not shown: His6, C-terminal, kept
T1 sequence (looked up): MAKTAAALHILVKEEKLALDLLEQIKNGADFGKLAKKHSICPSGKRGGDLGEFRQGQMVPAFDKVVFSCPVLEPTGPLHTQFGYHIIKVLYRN

The target of experiment [3] is T2, Hexa-His-tagged FkpB E86A (E. coli) (UniProt P0AEM0).
T2 sequence: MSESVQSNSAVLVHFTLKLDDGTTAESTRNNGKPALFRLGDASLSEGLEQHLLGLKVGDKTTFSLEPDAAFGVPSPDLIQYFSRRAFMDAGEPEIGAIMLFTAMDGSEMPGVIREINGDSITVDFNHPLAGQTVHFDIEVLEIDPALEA

The target in experiment [4] is T3, Hexa-His-tagged FkpB (wild type) (E. coli) (UniProt P0AEM0).
T3 sequence: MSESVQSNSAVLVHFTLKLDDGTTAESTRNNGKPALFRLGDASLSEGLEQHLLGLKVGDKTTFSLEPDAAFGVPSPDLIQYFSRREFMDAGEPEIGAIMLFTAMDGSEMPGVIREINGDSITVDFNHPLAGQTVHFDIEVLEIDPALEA

The target in experiment [5] is T4, Hexa-His-tagged FklB (wild type) (E. coli) (UniProt P0A9L3).
T4 sequence: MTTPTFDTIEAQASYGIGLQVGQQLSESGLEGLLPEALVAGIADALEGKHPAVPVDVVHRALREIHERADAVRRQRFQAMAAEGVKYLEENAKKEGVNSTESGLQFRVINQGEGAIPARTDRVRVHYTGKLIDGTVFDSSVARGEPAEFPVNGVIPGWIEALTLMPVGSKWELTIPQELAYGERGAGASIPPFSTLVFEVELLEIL

For experiment [6], the target named is Hexa-His-tagged FkpB N126A H127A double mutant (E. coli) (UniProt P0AEM0).
For experiment [7], the target named is Hexa-His-tagged FkpB N126A (E. coli) (UniProt P0AEM0).
Experiment [8] deals with T5, Hexa-His-tagged FkpB P128A (E. coli) (UniProt P0AEM0).
T5 sequence: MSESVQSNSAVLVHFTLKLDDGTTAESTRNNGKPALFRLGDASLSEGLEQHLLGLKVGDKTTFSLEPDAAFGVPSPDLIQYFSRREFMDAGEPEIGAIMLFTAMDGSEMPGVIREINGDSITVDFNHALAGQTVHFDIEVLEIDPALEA

No constants are given. Whether binding was seen depends on the method and setting. In cells and extracts the contact can be indirect. These calls come from enrichment with a bait or labelling near it, and not all partners need be listed. For part of these data: No binding means not detected with the bait. For part of these data: Sequences can lack the tags named with a protein.

B1: YrdA (protein, UniProt P0A9W9 1-184)
chain: MSDVLRPYRDLFPQIGQRVMIDDSSVVIGDVRLADDVGIWPLVVIRGDVHYVQIGARTNIQDGSMLHVTHKSSYNPDGNPLTIGEDVTVGHKVMLHGCTIGNRVLVGMGSILLDGAIVEDDVMIGAGSLVPQNKRLESGYLYLGSPVKQIRPLSDEEKAGLRYSANNYVKWKDEYLDQGNQTQP
On to B1, for which the binding entry in experiment [1] is given as “no binding”; in experiment [2], “binds”.

B2: RNA chaperone ProQ (protein, UniProt P45577 1-232)
chain: MENQPKLNSSKEVIAFLAERFPHCFSAEGEARPLKIGIFQDLVDRVAGEMNLSKTQLRSALRLYTSSWRYLYGVKPGATRVDLDGNPCGELDEQHVEHARKQLEEAKARVQAQRAEQQAKKREAAATAGEKEDAPRRERKPRPTTPRRKEGAERKPRAQKPVEKAPKTVKAPREEQHTPVSDISALTVGQALKVKAGQNAMDATVLEITKDGVRVQLNSGMSLIVRAEHLVF
For the molecule B2, the binding entry in experiment [3], in experiment [4] and in experiment [2] was “binds” each time.

B3: LptB (cytoplasmic ATPase component of LPS ABC transport complex) (protein, UniProt P0A9V1 1-241)
chain: MATLTAKNLAKAYKGRRVVEDVSLTVNSGEIVGLLGPNGAGKTTTFYMVVGIVPRDAGNIIIDDDDISLLPLHARARRGIGYLPQEASIFRRLSVYDNLMAVLQIRDDLSAEQREDRANELMEEFHIEHLRDSMGQSLSGGERRRVEIARALAANPKFILLDEPFAGVDPISVIDIKRIIEHLRDSGLGVLITDHNVRETLAVCERAYIVSQGHLIAHGTPTEILQDEHVKRVYLGEDFRL
As to B3, the binding entry in experiment [3], in experiment [5], in experiment [4] and in experiment [2] was “binds” each time.

B4: RpoE (envelope stress response regulator sigma E) (protein, UniProt P0AGB6 1-191)
chain: MSEQLTDQVLVERVQKGDQKAFNLLVVRYQHKVASLVSRYVPSGDVPDVVQEAFIKAYRALDSFRGDSAFYTWLYRIAVNTAKNYLVAQGRRPPSSDVDAIEAENFESGGALKEISNPENLMLSEELRQIVFRTIESLPEDLRMAITLRELDGLSYEEIAAIMDCPVGTVRSRIFRAREAIDNKVQPLIRR
In the case of B4, the binding result in experiment [3] is listed as “binds”; in experiment [5], “binds”; in experiment [6], “no binding”; in experiment [7] it was “binds”; in experiment [8], “binds”; in experiment [4] it was “binds”.
